Results reported in article PMC7437997.
Construct, isoform or probe ends are uncertain for at least one entry.

Experiments:
[1] = molecular target: Lhr (archaeal Lhr, Mth1802) (Methanothermobacter thermautotrophicus ΔH) (UniProt O27830); experiment: EMSA; settings: room temperature, 10 nM DNA, 100 nM Lhr, +/- ATP and MgCl2, 5% acrylamide TBE gel, recombinant protein
[2] = molecular target: Lhr (archaeal Lhr, Mth1802) (Methanothermobacter thermautotrophicus ΔH) (UniProt O27830); experiment: smFRET; settings: 1 µM Lhr, 5' biotin on S18, smFRET: 1 µM Lhr, RT or 45°C, recombinant protein

Measured: binding result

ATCGATAGTCTCTAGACAGTATGTCCTAGCAAGCCAGAATTCGGCAGCGT / GGACATACTGTCTAGAGACTATCGAT / GACGCTGCCGAATTCTGGCTTGCTATGTAAATCTTTGCCCACGTTGACCC / GGGTCAACGTGGGCAAAGATTTACA [fork-2 (ATTO 532/ATTO 647N labelled FRET fork)]
binds: [1]; ATP-Mg2+, Lhr-bound two-strand unwinding product, 5' biotin on S18, EMSA: buffer HB (20 mM Tris-HCl pH 7.5, 2 mM DTT, 100 µg/ml BSA, 7% glycerol) | [1]; no ATP, 5' biotin on S18, EMSA: buffer HB (20 mM Tris-HCl pH 7.5, 2 mM DTT, 100 µg/ml BSA, 7% glycerol) | [2]; 45°C, 1 mM MgCl2, 2 mM ATP, E ~ 0, fork mostly unwound | [2]; 45°C, no ATP-Mg2+, new populations E = 0.50, 0.92 and 0.12 | [2]; room temperature, no ATP-Mg2+, E shifts 0.72 to 0.78
